# Data reported in the supplement of paper PMC9744312.
# Where a name gives a salt, the structure may show the parent alone. The list shows a part of the results. Single values of this set are uncertain.
# System: Peyronie's disease tunica albuginea primary fibroblasts
# Assay: cell viability (DRAQ5 nuclear stain) relative to TGF-beta1-only control; higher = more viable cells
# Conditions: 10 µM; TGF-beta1 10 ng/mL; 72 h
row,SMILES,cell viability
1,O=C(O)c1cc(-c2ccc(F)cc2F)ccc1O [Diflunisal],82.4%
2,CCCCNC(=O)NS(=O)(=O)c1ccc(C)cc1 [Tolbutamide],96%
3,"CCCS(=O)(=O)Nc1ccc(F)c(C(=O)c2c[nH]c3ncc(-c4ccc(Cl)cc4)cc23)c1F [Vemurafenib (PLX4032, RG7204)]",89%
4,CCOC(=O)OC(C)OC1=C(C(=O)Nc2ccccn2)N(C)S(=O)(=O)c2ccccc21 (centres undefined) [Ampiroxicam],100%
5,O=C(Nc1c(Cl)cncc1Cl)c1ccc(OC(F)F)c(OCC2CC2)c1 [Roflumilast],104%
6,CC(=O)N[C@H]1[C@H]([C@H](O)[C@H](O)CO)OC(C(=O)O)=C[C@@H]1NC(=N)N [Zanamivir],94.9%
7,CCC(=O)O[C@]1(C(=O)CCl)[C@@H](C)C[C@H]2[C@@H]3C[C@H](F)C4=CC(=O)C=C[C@]4(C)[C@@]3(F)[C@@H](O)C[C@@]21C [Halobetasol Propionate],78%
8,CC[C@H](C)[C@H](NC(=O)[C@@H]1CCCN1C(=O)CNC(=O)[C@H](Cc1ccccc1)NC(=O)[C@H](CC(N)=O)NC(=O)[C@H](CC(N)=O)NC(=O)[C@H](CO)NC(=O)[C@H](CO)NC(=O)[C@H](Cc1c[nH]cn1)NC(=O)[C@@H](NC(=O)[C@H](CC(C)C)NC(=O)[C@H](Cc1ccccc1)NC(=O)[C@H](CC(N)=O)NC(=O)[C@H](C)NC(=O)[C@H](CC(C)C)NC(=O)[C@H](CCCNC(=N)N)NC(=O)[C@H](CCC(N)=O)NC(=O)[C@@H](NC(=O)[C@H](C)NC(=O)[C@@H]1CSSC[C@H](NC(=O)[C@@H](N)CCCCN)C(=O)N[C@@H](CC(N)=O)C(=O)N[C@@H]([C@@H](C)O)C(=O)N[C@@H](C)C(=O)N[C@@H]([C@@H](C)O)C(=O)N1)[C@@H](C)O)C(C)C)C(=O)N[C@@H](CC(C)C)C(=O)N1CCC[C@H]1C(=O)N1CCC[C@H]1C(=O)N[C@H](C(=O)N[C@@H](CC(N)=O)C(=O)N[C@H](C(=O)NCC(=O)N[C@@H](CO)C(=O)N[C@@H](CC(N)=O)C(=O)N[C@H](C(=O)N[C@@H](Cc1ccc(O)cc1)C(N)=O)[C@@H](C)O)C(C)C)[C@@H](C)O [Pramlintide Acetate],123%
9,CCN1CC(CCN2CCOCC2)C(c2ccccc2)(c2ccccc2)C1=O (centres undefined) [Doxapram HCl],95.7%
10,CCN1CC(CCN2CCOCC2)C(c2ccccc2)(c2ccccc2)C1=O (centres undefined) [Doxapram],89.4%
11,CC(=O)OCC(=O)[C@@]12N=C(C)O[C@@H]1C[C@H]1[C@@H]3CCC4=CC(=O)C=C[C@]4(C)[C@H]3[C@@H](O)C[C@@]12C [Deflazacort],81.4%
12,OCc1cc(C(O)CNCCCCCCOCCCCc2ccccc2)ccc1O (centres undefined) [Salmeterol],69.5%
13,OCc1cc(C(O)CNCCCCCCOCCCCc2ccccc2)ccc1O (centres undefined) [Salmeterol Xinafoate],68.6%
14,C[C@@H](CN1CC(=O)NC(=O)C1)N1CC(=O)NC(=O)C1 [Dexrazoxane],93.5%
15,"C[C@@H](CN1CC(=O)NC(=O)C1)N1CC(=O)NC(=O)C1 [Dexrazoxane HCl (ICRF-187, ADR-529)]",90.9%
16,CC(=O)Nc1ccc(CC(=O)O)cc1 [Actarit],87.5%
17,"CC1CCC(C(C)C)C(O)C1 (single isomer, unassigned; (-)) [(-)-Menthol]",89.2%
18,CNCCC(Oc1ccc(C(F)(F)F)cc1)c1ccccc1 (centres undefined) [Fluoxetine HCl],80.5%
19,Cc1nc2n(c(=O)c1CCN1CCC(c3noc4cc(F)ccc34)CC1)CCCC2 [Risperidone],95%
20,N=C(N)NCCC[C@H](N)C(=O)O [L-Arginine HCl (L-Arg)],84%
21,CCCCOc1cc(C(=O)NCCN(CC)CC)c2ccccc2n1 [Cinchocaine],80%
22,CCCCOc1cc(C(=O)NCCN(CC)CC)c2ccccc2n1 [Dibucaine HCl],93.3%

row,SMILES,cell viability
1,CCS(=O)(=O)CCn1c([N+](=O)[O-])cnc1C [Tinidazole],91.2%
2,N#C[C@@H]1C[C@@H]2C[C@@H]2N1C(=O)[C@@H](N)C12CC3CC(CC(O)(C3)C1)C2 [Saxagliptin],85.5%
3,N#C[C@@H]1C[C@@H]2C[C@@H]2N1C(=O)[C@@H](N)C12CC3CC(CC(O)(C3)C1)C2 [Saxagliptin hydrate],97.7%
4,O=C1CCc2cc(OCCCCc3nnnn3C3CCCCC3)ccc2N1 [Cilostazol],97.1%
5,CCC1=C(C)CN(C(=O)NCCc2ccc(S(=O)(=O)NC(=O)N[C@H]3CC[C@H](C)CC3)cc2)C1=O [Glimepiride],67.6%
6,CC1(C)NC(=O)N(c2ccc([N+](=O)[O-])c(C(F)(F)F)c2)C1=O [Nilutamide],86.5%
7,CCCCCCc1ccc(O)cc1O [Hexylresorcinol],83.8%
8,O=C(/C=C\n1cnc(-c2cc(C(F)(F)F)cc(C(F)(F)F)c2)n1)NNc1cnccn1 [Selinexor (KPT-330)],56%
9,COC(=O)[C@@H]1[C@H]2C[C@H]3c4[nH]c5ccccc5c4CCN3C[C@@H]2CC[C@@H]1O [Yohimbine HCl],89.9%
10,CC(C)NCC(O)COc1cccc2ccccc12 (centres undefined) [Propranolol HCl],76%
11,CCCCc1nc(C)c(CC(=S)N(C)C)c(=O)n1Cc1ccc(-c2ccccc2-c2nnn[nH]2)cc1 [Fimasartan],97.3%
12,Cc1nc(NC(=O)N2CCC[C@H]2C(N)=O)sc1-c1ccnc(C(C)(C)C(F)(F)F)c1 [Alpelisib (BYL719)],63.8%
13,CCOC(=O)C1=C[C@]2(CC)CCCN3CCc4c(n1c1ccccc41)[C@@H]32 [Vinpocetine],94.8%
14,CN1CCC(COc2cnc(-c3cccc(Cn4nc(-c5cccc(C#N)c5)ccc4=O)c3)nc2)CC1,81.3%
15,CC(C)c1cc(C(=O)N2Cc3ccc(CN4CCN(C)CC4)cc3C2)c(O)cc1O,56.3%
16,Cc1cccc(CN2CCN(C(c3ccccc3)c3ccc(Cl)cc3)CC2)c1 (centres undefined) [Meclizine 2HCl],93.3%
17,COc1cnc(NS(=O)(=O)c2ccc(N)cc2)nc1 [Sulfameter],95%
18,O=C(O)CCC(=O)Nc1ccc(S(=O)(=O)Nc2nccs2)cc1 [Succinylsulfathiazole],95.6%
19,O=NN(CCCl)C(=O)NC1CCCCC1 [Lomustine],76.9%
20,COc1ccccc1O [Guaiacol],95.2%
21,CCCCC(C)(O)C/C=C/[C@H]1[C@H](O)CC(=O)[C@@H]1CCCCCCC(=O)OC (mixture of isomers) [Misoprostol],83%
22,CCCCCCCCc1ccc(CCC(N)(CO)CO)cc1 [Fingolimod (FTY720) HCl],49.4%

row,SMILES,cell viability
1,CC(=O)OCC1=C(C(=O)O)N2C(=O)[C@@H](NC(=O)CSc3ccncc3)[C@H]2SC1 [Cephapirin Sodium],52.5%
2,O=C1OC2(c3ccc(O)cc3Oc3cc(O)ccc32)c2ccccc21 [Fluorescein],92%
3,CN(C)[C@@H]1C(O)=C(C(N)=O)C(=O)[C@@]2(O)C(O)=C3C(=O)c4c(O)ccc(Cl)c4[C@@](C)(O)[C@H]3C[C@@H]12 [Chlortetracycline HCl],92%
4,COc1cc(C(=O)NC2CCCNC2)cc(OC)c1OC (centres undefined) [Troxipide],99.2%
5,C[C@]12CC[C@@H]3c4ccc(O)cc4CC[C@H]3[C@@H]1CCC2=O [Estrone],95.2%
6,CN1CC2c3ccccc3Oc3ccc(Cl)cc3C2C1 (centres undefined) [Asenapine maleate],54.7%
7,c1ccc2[nH]c(-c3cscn3)nc2c1 [Thiabendazole],93.5%
8,OC[C@@H](O)[C@@H](O[C@@H]1O[C@H](CO)[C@H](O)[C@H](O)[C@H]1O)[C@H](O)[C@@H](O)CO [Lactitol monohydrate],78.6%
9,OC[C@@H](O)[C@@H](O[C@@H]1O[C@H](CO)[C@H](O)[C@H](O)[C@H]1O)[C@H](O)[C@@H](O)CO [Lactitol],83%
10,CC(C)(C)NC(=O)N[C@H](C(=O)N1C[C@H]2[C@@H]([C@H]1C(=O)NC(CC1CCC1)C(=O)C(N)=O)C2(C)C)C(C)(C)C (some centres undefined) [Boceprevir],94.9%
11,CC1(C)S[C@@H]2[C@H](NC(=O)[C@H](NC(=O)N3CCN(S(C)(=O)=O)C3=O)c3ccccc3)C(=O)N2[C@H]1C(=O)O [Mezlocillin Sodium],90.7%
12,Cn1c(=O)cc(N2CCC[C@@H](N)C2)n(Cc2ccccc2C#N)c1=O [Alogliptin],110%
13,CCCCCCCN(CC)CCCC(O)c1ccc(NS(C)(=O)=O)cc1 (centres undefined) [Ibutilide Fumarate],84.4%
14,Cc1nnc(C(C)C)n1C1C[C@H]2CC[C@@H](C1)N2CC[C@H](NC(=O)C1CCC(F)(F)CC1)c1ccccc1 (stereo in doubt) [Maraviroc],94.4%
15,COc1cc(Nc2ncc(F)c(Nc3ccc4c(n3)N(COP(=O)(O)O)C(=O)C(C)(C)O4)n2)cc(OC)c1OC [Fostamatinib (R788)],29%
16,COc1cc(Nc2ncc(F)c(Nc3ccc4c(n3)N(COP(=O)(O)O)C(=O)C(C)(C)O4)n2)cc(OC)c1OC [R788 (Fostamatinib) Disodium],38%
17,COc1ccc(-c2cc(=O)c3c(O)cc(O[C@@H]4O[C@H](CO[C@@H]5O[C@@H](C)[C@H](O)[C@@H](O)[C@H]5O)[C@@H](O)[C@H](O)[C@H]4O)cc3o2)cc1O [Diosmin],92.4%
18,FC(F)(F)c1ccc(CNc2ccc(Cc3c[nH]c4ncc(Cl)cc34)cn2)cn1 [Pexidartinib (PLX3397)],72.1%
19,Cn1c(=O)c2[nH]cnc2n(C)c1=O [Aminophylline],93.8%
20,CS(=O)(=O)c1ccc(C2=C(c3ccccc3)C(=O)OC2)cc1 [Rofecoxib],94.4%

# A few values from the results shown:
# Cn1c(=O)c2[nH]cnc2n(C)c1=O [Aminophylline] – cell viability: 93.8%
# CCCCNC(=O)NS(=O)(=O)c1ccc(C)cc1 [Tolbutamide] – cell viability: 96%
# O=C1OC2(c3ccc(O)cc3Oc3cc(O)ccc32)c2ccccc21 [Fluorescein] – cell viability: 92%
# CC[C@H](C)[C@H](NC(=O)[C@@H]1CCCN1C(=O)CNC(=O)[C@H](Cc1ccccc1)NC(=O)[C@H](CC(N)=O)NC(=O)[C@H](CC(N)=O)NC(=O)[C@H](CO)NC(=O)[C@H](CO)NC(=O)[C@H](Cc1c[nH]cn1)NC(=O)[C@@H](NC(=O)[C@H](CC(C)C)NC(=O)[C@H](Cc1ccccc1)NC(=O)[C@H](CC(N)=O)NC(=O)[C@H](C)NC(=O)[C@H](CC(C)C)NC(=O)[C@H](CCCNC(=N)N)NC(=O)[C@H](CCC(N)=O)NC(=O)[C@@H](NC(=O)[C@H](C)NC(=O)[C@@H]1CSSC[C@H](NC(=O)[C@@H](N)CCCCN)C(=O)N[C@@H](CC(N)=O)C(=O)N[C@@H]([C@@H](C)O)C(=O)N[C@@H](C)C(=O)N[C@@H]([C@@H](C)O)C(=O)N1)[C@@H](C)O)C(C)C)C(=O)N[C@@H](CC(C)C)C(=O)N1CCC[C@H]1C(=O)N1CCC[C@H]1C(=O)N[C@H](C(=O)N[C@@H](CC(N)=O)C(=O)N[C@H](C(=O)NCC(=O)N[C@@H](CO)C(=O)N[C@@H](CC(N)=O)C(=O)N[C@H](C(=O)N[C@@H](Cc1ccc(O)cc1)C(N)=O)[C@@H](C)O)C(C)C)[C@@H](C)O [Pramlintide Acetate] – cell viability: 123%
# c1ccc2[nH]c(-c3cscn3)nc2c1 [Thiabendazole] – cell viability: 93.5%
